{"source": "PubChem BioAssay AID1224831 – NIAID – 2016", "test": "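Genes that support or restrain LPS-induced TNF-alpha reporter activity in macrophage-like cells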 (follow-up of hits)", "cells": "human THP-1 B5 monocytic leukaemia cells carrying a TNF promoter luciferase reporter, made macrophage-like with PMA", "knock-down reagent": "single siRNA against human genes, 50 nM", "timing": "about 68 h of knock-down, then 4 h LPS", "conditions": "LPS (Salmonella minnesota, TLR-grade) at 10 ng/ml for 4 h; PMA 5 ng/ml present during knock-down", "read-out": "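Firefly to renilla luciferase ratio of a TNF promoter reporter after 4 h LPS, scaled to plate median, turned into robust z-score, averaged over replicates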", "direction": "TNF reporter z-score: higher = stronger LPS-induced TNF reporter signal; z-score, median over gene's siRNAs: higher = stronger TNF reporter signal across the gene's siRNAs", "hit rule": "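Two-sided call: reduced or raised TNF reporter signal counts as active once mean z reaches about -1 or below, or about 1.5 or above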", "calls": "active = changed TNF reporter (either direction); inactive = little change", "note": "This is an unselected part of about 3,500 reagents tested. Over the whole deposit, 731 (21%) are marked active. 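Active means either lowered or raised reporter signal; the gene-median score did not drive the per-siRNA calls.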 A number with no mark means an inactive call. The numbers tell different reagents against one gene apart. No sequences are given here."}
{"target": "CFAP161 (cilia and flagella associated protein 161)", "reagent no.": 1, "TNF reporter z-score, replicate mean": 0.56, "z-score, median over gene's siRNAs": -0.08}
{"target": "CFAP161 (cilia and flagella associated protein 161)", "reagent no.": 2, "TNF reporter z-score, replicate mean": -0.17, "z-score, median over gene's siRNAs": -0.08}
{"target": "CFAP161 (cilia and flagella associated protein 161)", "reagent no.": 3, "TNF reporter z-score, replicate mean": 0.01, "z-score, median over gene's siRNAs": -0.08}
{"target": "CFAP161 (cilia and flagella associated protein 161)", "reagent no.": 4, "TNF reporter z-score, replicate mean": 0, "z-score, median over gene's siRNAs": -0.08}
{"target": "CFAP161 (cilia and flagella associated protein 161)", "reagent no.": 5, "TNF reporter z-score, replicate mean": -0.3, "z-score, median over gene's siRNAs": -0.08}
{"target": "CFAP161 (cilia and flagella associated protein 161)", "reagent no.": 6, "TNF reporter z-score, replicate mean": -0.16, "z-score, median over gene's siRNAs": -0.08}
{"target": "CDK14 (cyclin dependent kinase 14)", "reagent no.": 1, "TNF reporter z-score, replicate mean": 0.34, "z-score, median over gene's siRNAs": 0.55}
{"target": "CDK14 (cyclin dependent kinase 14)", "reagent no.": 2, "TNF reporter z-score, replicate mean": -0.64, "z-score, median over gene's siRNAs": 0.55}
{"target": "CDK14 (cyclin dependent kinase 14)", "reagent no.": 3, "TNF reporter z-score, replicate mean": -0.16, "z-score, median over gene's siRNAs": 0.55}
{"target": "CDK14 (cyclin dependent kinase 14)", "reagent no.": 4, "TNF reporter z-score, replicate mean": 0.78, "z-score, median over gene's siRNAs": 0.55}
{"target": "CDK14 (cyclin dependent kinase 14)", "reagent no.": 5, "TNF reporter z-score, replicate mean": 0.76, "z-score, median over gene's siRNAs": 0.55}
{"target": "CDK14 (cyclin dependent kinase 14)", "reagent no.": 6, "TNF reporter z-score, replicate mean": "2.12 (active)", "z-score, median over gene's siRNAs": 0.55}
{"target": "MAFB (MAF bZIP transcription factor B)", "reagent no.": 1, "TNF reporter z-score, replicate mean": -0.72, "z-score, median over gene's siRNAs": -0.925}
{"target": "MAFB (MAF bZIP transcription factor B)", "reagent no.": 2, "TNF reporter z-score, replicate mean": "-2.41 (active)", "z-score, median over gene's siRNAs": -0.925}
{"target": "MAFB (MAF bZIP transcription factor B)", "reagent no.": 3, "TNF reporter z-score, replicate mean": -0.19, "z-score, median over gene's siRNAs": -0.925}
{"target": "MAFB (MAF bZIP transcription factor B)", "reagent no.": 4, "TNF reporter z-score, replicate mean": -0.7, "z-score, median over gene's siRNAs": -0.925}
{"target": "MAFB (MAF bZIP transcription factor B)", "reagent no.": 5, "TNF reporter z-score, replicate mean": "-1.13 (active)", "z-score, median over gene's siRNAs": -0.925}
{"target": "MAFB (MAF bZIP transcription factor B)", "reagent no.": 6, "TNF reporter z-score, replicate mean": "-1.87 (active)", "z-score, median over gene's siRNAs": -0.925}

Hits, of those listed so far:
{"target": "CDK14 (cyclin dependent kinase 14)", "reagent no.": 6, "TNF reporter z-score, replicate mean": "2.12 (active)", "z-score, median over gene's siRNAs": 0.55}
{"target": "MAFB (MAF bZIP transcription factor B)", "reagent no.": 2, "TNF reporter z-score, replicate mean": "-2.41 (active)", "z-score, median over gene's siRNAs": -0.925}
{"target": "MAFB (MAF bZIP transcription factor B)", "reagent no.": 5, "TNF reporter z-score, replicate mean": "-1.13 (active)", "z-score, median over gene's siRNAs": -0.925}
{"target": "MAFB (MAF bZIP transcription factor B)", "reagent no.": 6, "TNF reporter z-score, replicate mean": "-1.87 (active)", "z-score, median over gene's siRNAs": -0.925}
